# Experimental data as given in the supplement of paper PMC10032668.
# Chains of the proteins cited; added tags and fusions are not shown.
# COIL, P38432, UniProt P38432, whole entry: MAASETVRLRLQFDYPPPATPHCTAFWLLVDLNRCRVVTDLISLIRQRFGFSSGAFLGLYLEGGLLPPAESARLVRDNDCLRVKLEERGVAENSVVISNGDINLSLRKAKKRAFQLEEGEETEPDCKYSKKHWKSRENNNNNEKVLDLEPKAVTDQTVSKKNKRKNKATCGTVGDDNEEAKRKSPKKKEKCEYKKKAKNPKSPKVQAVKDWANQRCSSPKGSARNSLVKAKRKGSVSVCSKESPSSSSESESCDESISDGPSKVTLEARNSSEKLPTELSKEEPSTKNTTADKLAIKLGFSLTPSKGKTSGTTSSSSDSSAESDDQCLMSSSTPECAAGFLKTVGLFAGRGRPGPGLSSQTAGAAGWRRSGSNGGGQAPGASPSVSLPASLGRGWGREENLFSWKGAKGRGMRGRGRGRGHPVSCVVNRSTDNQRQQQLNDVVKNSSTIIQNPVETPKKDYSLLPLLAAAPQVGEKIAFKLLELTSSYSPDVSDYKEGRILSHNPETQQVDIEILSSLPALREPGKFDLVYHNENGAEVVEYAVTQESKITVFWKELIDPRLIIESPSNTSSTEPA
# NDUFS6, O75380, UniProt O75380, whole entry: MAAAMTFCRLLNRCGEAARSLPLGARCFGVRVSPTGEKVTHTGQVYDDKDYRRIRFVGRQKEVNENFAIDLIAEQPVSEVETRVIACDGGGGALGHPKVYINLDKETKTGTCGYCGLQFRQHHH
# PHF3, Q92576, UniProt Q92576, whole entry: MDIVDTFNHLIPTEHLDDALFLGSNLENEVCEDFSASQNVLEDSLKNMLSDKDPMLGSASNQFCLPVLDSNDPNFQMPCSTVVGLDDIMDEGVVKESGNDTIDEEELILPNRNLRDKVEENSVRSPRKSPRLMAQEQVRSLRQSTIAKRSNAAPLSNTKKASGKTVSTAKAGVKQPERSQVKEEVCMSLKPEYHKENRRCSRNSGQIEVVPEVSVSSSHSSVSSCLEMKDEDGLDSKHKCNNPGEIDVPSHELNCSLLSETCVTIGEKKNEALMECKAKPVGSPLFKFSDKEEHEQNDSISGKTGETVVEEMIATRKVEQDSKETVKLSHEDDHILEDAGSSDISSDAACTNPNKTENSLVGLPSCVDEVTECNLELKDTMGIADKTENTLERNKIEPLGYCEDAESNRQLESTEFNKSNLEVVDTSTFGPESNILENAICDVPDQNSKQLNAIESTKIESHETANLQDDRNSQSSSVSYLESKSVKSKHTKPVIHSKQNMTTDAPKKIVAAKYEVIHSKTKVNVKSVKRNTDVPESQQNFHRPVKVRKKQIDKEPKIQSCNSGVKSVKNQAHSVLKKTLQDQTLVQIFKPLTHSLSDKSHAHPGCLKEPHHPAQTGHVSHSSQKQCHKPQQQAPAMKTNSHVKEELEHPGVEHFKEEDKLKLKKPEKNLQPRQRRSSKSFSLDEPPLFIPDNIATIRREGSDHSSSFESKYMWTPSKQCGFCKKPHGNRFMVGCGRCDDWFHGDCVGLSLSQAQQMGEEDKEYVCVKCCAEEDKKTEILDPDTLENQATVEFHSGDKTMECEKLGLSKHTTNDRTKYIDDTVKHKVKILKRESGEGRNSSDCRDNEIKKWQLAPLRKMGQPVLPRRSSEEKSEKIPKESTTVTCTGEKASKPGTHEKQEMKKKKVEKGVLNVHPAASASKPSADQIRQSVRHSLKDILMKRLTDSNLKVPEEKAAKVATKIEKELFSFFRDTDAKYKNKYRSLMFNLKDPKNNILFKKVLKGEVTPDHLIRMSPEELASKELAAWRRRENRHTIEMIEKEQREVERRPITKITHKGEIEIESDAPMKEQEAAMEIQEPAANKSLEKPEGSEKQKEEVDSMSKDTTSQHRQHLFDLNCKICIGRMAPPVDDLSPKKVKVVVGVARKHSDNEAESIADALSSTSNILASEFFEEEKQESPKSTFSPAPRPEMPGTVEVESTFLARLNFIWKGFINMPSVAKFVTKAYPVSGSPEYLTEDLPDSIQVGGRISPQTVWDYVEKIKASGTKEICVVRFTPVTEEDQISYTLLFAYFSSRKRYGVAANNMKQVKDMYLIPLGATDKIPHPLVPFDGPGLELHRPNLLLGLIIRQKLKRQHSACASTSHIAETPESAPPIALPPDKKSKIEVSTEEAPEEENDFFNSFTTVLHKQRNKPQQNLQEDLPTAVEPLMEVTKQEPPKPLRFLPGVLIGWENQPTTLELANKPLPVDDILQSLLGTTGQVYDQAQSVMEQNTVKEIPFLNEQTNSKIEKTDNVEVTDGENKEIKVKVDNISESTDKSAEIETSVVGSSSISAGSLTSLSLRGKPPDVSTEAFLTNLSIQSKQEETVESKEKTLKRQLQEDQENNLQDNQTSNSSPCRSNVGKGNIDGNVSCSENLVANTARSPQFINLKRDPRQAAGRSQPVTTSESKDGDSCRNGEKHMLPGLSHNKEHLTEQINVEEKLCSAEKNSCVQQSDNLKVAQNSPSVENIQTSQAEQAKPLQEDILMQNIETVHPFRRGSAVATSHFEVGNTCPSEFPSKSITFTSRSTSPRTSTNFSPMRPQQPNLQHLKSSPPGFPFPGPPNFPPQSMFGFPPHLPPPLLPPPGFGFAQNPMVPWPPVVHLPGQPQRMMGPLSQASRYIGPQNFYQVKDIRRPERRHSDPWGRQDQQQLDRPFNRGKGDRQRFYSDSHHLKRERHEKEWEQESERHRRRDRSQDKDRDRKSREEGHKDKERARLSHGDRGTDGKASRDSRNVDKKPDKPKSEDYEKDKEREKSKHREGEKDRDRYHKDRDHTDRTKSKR
# TUBGCP3, Q96CW5, UniProt Q96CW5, whole entry: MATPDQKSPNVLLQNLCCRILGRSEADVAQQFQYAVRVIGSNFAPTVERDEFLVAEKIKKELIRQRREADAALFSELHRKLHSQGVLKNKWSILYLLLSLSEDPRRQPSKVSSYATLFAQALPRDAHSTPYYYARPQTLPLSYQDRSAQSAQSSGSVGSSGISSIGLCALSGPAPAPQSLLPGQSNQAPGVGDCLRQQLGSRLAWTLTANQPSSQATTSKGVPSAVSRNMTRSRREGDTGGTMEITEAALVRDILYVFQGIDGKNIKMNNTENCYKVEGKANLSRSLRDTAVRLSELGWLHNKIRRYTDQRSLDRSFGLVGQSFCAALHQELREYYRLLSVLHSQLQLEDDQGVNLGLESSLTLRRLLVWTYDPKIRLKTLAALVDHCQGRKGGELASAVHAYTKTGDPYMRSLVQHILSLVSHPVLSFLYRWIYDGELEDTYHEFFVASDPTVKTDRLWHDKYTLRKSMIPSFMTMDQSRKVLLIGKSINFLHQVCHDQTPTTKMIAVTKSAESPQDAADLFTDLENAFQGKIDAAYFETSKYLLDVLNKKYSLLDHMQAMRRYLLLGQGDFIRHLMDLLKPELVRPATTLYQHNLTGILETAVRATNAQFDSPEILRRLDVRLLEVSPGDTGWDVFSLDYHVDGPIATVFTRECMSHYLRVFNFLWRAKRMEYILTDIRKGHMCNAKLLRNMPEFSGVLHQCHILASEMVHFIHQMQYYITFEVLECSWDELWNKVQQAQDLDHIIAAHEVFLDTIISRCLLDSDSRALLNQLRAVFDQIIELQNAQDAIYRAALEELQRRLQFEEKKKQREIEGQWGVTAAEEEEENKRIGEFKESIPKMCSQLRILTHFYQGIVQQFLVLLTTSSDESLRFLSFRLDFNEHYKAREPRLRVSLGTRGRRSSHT
# YBX3, P16989, UniProt P16989, whole entry: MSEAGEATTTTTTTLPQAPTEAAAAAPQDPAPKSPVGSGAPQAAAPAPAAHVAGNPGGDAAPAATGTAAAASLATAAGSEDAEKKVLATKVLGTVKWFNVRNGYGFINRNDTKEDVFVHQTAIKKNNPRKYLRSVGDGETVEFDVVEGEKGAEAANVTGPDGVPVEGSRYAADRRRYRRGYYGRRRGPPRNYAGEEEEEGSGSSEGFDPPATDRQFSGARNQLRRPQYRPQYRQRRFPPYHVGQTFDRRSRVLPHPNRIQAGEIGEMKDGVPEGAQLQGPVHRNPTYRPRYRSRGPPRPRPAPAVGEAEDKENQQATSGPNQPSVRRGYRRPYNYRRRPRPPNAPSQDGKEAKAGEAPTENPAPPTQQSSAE
# The other results are listed elsewhere or left out. Only hits are listed; about a third recur on repeated control peptides.
# How the values were obtained:
# Assay in all cases: PRISMA enrichment of interactor (LFQ) in peptide spot vs all other peptide spots (log2 fold change); higher = stronger / more specific binding of the interactor to the peptide
# AKAP1, Q92667 = target: AKAP1, Q92667
# Protocol: (§1)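 PRISMA: 15-aa overlapping tiles (offset 8 aa) of 60 microproteins, plus SOS1/GLUT1 control peptides, were spot-synthesized on cellulose membranes in triplicate. Membranes were incubated with benzonase-treated HEK293T lysate, and bound proteins were identified by LC-MS/MS with LFQ. Enrichment is the log2 fold change of each protein in one spot versus all other spots. Only interactors passing the significance cutoff are listed.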
# ARCN1, P48444 = target: ARCN1, P48444
# Protocol: as §1
# ARFGEF1, Q9Y6D6 = target: ARFGEF1, Q9Y6D6
# Protocol: as §1
# BASP1, P80723 = target: BASP1, P80723
# Protocol: as §1
# CDKN2AIP, Q9NXV6 = target: CDKN2AIP, Q9NXV6
# Protocol: as §1
# CEP290, O15078 = target: CEP290, O15078
# Protocol: as §1
# COIL, P38432 = target: COIL, P38432
# Protocol: as §1
# DDX1, Q92499 = target: DDX1, Q92499
# Protocol: as §1
# DFFA, O00273 = target: DFFA, O00273
# Protocol: as §1
# DIS3, Q9Y2L1 = target: DIS3, Q9Y2L1
# Protocol: as §1
# FAM207A, Q9NSI2 = target: FAM207A, Q9NSI2
# Protocol: as §1
# GSTK1, Q9Y2Q3 = target: GSTK1, Q9Y2Q3
# Protocol: as §1
# HNRNPL, P14866 = target: HNRNPL, P14866
# Protocol: as §1
# HNRNPUL1, Q9BUJ2 = target: HNRNPUL1, Q9BUJ2
# Protocol: as §1
# HTATSF1, O43719 = target: HTATSF1, O43719
# Protocol: as §1
# MRPL14, Q6P1L8 = target: MRPL14, Q6P1L8
# Protocol: as §1
# MRPL19, P49406 = target: MRPL19, P49406
# Protocol: as §1
# NDUFS6, O75380 = target: NDUFS6, O75380
# Protocol: as §1
# NOC2L, Q9Y3T9 = target: NOC2L, Q9Y3T9
# Protocol: as §1
# NUP133, Q8WUM0 = target: NUP133, Q8WUM0
# Protocol: as §1
# PACSIN2, Q9UNF0 = target: PACSIN2, Q9UNF0
# Protocol: as §1
# PAXBP1, Q9Y5B6 = target: PAXBP1, Q9Y5B6
# Protocol: as §1
# PBK, Q96KB5 = target: PBK, Q96KB5
# Protocol: as §1
# PHF3, Q92576 = target: PHF3, Q92576
# Protocol: as §1
# PLS3, P13797 = target: PLS3, P13797
# Protocol: as §1
# RANBP3, Q9H6Z4 = target: RANBP3, Q9H6Z4
# Protocol: as §1
# RBM15, Q96T37 = target: RBM15, Q96T37
# Protocol: as §1
# RBX1, P62877 = target: RBX1, P62877
# Protocol: as §1
# SCAF11, Q99590 = target: SCAF11, Q99590
# Protocol: as §1
# SEC24B, O95487 = target: SEC24B, O95487
# Protocol: as §1
# SLC25A33, Q9BSK2 = target: SLC25A33, Q9BSK2
# Protocol: as §1
# SPOUT1, Q5T280 = target: SPOUT1, Q5T280
# Protocol: as §1
# TUBGCP3, Q96CW5 = target: TUBGCP3, Q96CW5
# Protocol: as §1
# UBA1, P22314 = target: UBA1, P22314
# Protocol: as §1
# VPS52, Q8N1B4 = target: VPS52, Q8N1B4
# Protocol: as §1
# YBX3, P16989 = target: YBX3, P16989
# Protocol: as §1
# ZMYM4, Q5VZL5 = target: ZMYM4, Q5VZL5
# Protocol: as §1
binder,measurement,setting,value
ELPDYRQWKIEGTPL [NDUFB3],PRISMA enrichment of interactor (log2),"AKAP1, Q92667",5.48
same,PRISMA enrichment of interactor (log2),"ARCN1, P48444",6.09
same,PRISMA enrichment of interactor (log2),"ARFGEF1, Q9Y6D6",4.35
same,PRISMA enrichment of interactor (log2),"BASP1, P80723",4.17
same,PRISMA enrichment of interactor (log2),"CDKN2AIP, Q9NXV6",4.72
same,PRISMA enrichment of interactor (log2),"CEP290, O15078",5.69
same,PRISMA enrichment of interactor (log2),"COIL, P38432",6.19
same,PRISMA enrichment of interactor (log2),"DDX1, Q92499",7.25
same,PRISMA enrichment of interactor (log2),"DFFA, O00273",4.28
same,PRISMA enrichment of interactor (log2),"DIS3, Q9Y2L1",14.1
same,PRISMA enrichment of interactor (log2),"FAM207A, Q9NSI2",7.22
same,PRISMA enrichment of interactor (log2),"GSTK1, Q9Y2Q3",6.94
same,PRISMA enrichment of interactor (log2),"HNRNPL, P14866",4.64
same,PRISMA enrichment of interactor (log2),"HNRNPUL1, Q9BUJ2",4.3
same,PRISMA enrichment of interactor (log2),"HTATSF1, O43719",5.54
same,PRISMA enrichment of interactor (log2),"MRPL14, Q6P1L8",4.42
same,PRISMA enrichment of interactor (log2),"MRPL19, P49406",5.46
same,PRISMA enrichment of interactor (log2),"NDUFS6, O75380",4.54
same,PRISMA enrichment of interactor (log2),"NOC2L, Q9Y3T9",5
same,PRISMA enrichment of interactor (log2),"NUP133, Q8WUM0",5.36
same,PRISMA enrichment of interactor (log2),"PACSIN2, Q9UNF0",4.97
same,PRISMA enrichment of interactor (log2),"PAXBP1, Q9Y5B6",4.78
same,PRISMA enrichment of interactor (log2),"PBK, Q96KB5",4.47
same,PRISMA enrichment of interactor (log2),"PHF3, Q92576",7.82
same,PRISMA enrichment of interactor (log2),"PLS3, P13797",8.29
same,PRISMA enrichment of interactor (log2),"RANBP3, Q9H6Z4",5.2
same,PRISMA enrichment of interactor (log2),"RBM15, Q96T37",4.54
same,PRISMA enrichment of interactor (log2),"RBX1, P62877",4.14
same,PRISMA enrichment of interactor (log2),"SCAF11, Q99590",4.13
same,PRISMA enrichment of interactor (log2),"SEC24B, O95487",4.39
same,PRISMA enrichment of interactor (log2),"SLC25A33, Q9BSK2",5.9
same,PRISMA enrichment of interactor (log2),"SPOUT1, Q5T280",7.15
same,PRISMA enrichment of interactor (log2),"TUBGCP3, Q96CW5",4.31
same,PRISMA enrichment of interactor (log2),"UBA1, P22314",5.15
same,PRISMA enrichment of interactor (log2),"VPS52, Q8N1B4",7.78
same,PRISMA enrichment of interactor (log2),"YBX3, P16989",5.38
same,PRISMA enrichment of interactor (log2),"ZMYM4, Q5VZL5",6

# Shown with tabs: part of the list above
binder	measurement	setting	value
ELPDYRQWKIEGTPL [NDUFB3]	PRISMA enrichment of interactor (log2)	NOC2L, Q9Y3T9	5
same	PRISMA enrichment of interactor (log2)	PAXBP1, Q9Y5B6	4.78
